Assay results as given in patent US4146628A, “Antiarrhythmic quinuclidine carboxylic acid xylidide and method of producing the same and similar compounds” (priority 1977, dated 1979).

Assay: Summary comparison with lidocaine: side effects
Details: summary table

## CCN(CC)CC(=O)Nc1c(C)cccc1C [Lidocaine]
  Side effects: CNS-effects: extensive
